PubChem BioAssay AID1508588 – Peter MacCallum Cancer Centre – 2020

Assay: 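Which gene losses make BRAF-mutant melanoma cells more responsive to vemurafenib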 (primary screen)
System: human WM266.4 melanoma cells (BRAF V600 mutant)
Knock-down reagent: siRNA pool against human genes, 40 nM
Time to read-out: 96 h from transfection to read-out
Conditions: vemurafenib 300 nM (about IC25), added 48 h after transfection, for 48 h; comparison arm got DMSO vehicle only
Detection: 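Cell gain (DAPI nuclei at end minus before drug, mean of two replicates) and medium lactate by absorbance per cell, both as ratio to non-targeting siRNA, also grouped into fold-change classes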
Direction: cell gain with vemurafenib: higher = more cell gain than with non-targeting siRNA; lactate per cell with vemurafenib: higher = more lactate made per cell
Active means: 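a knock-down counts as enhancing when its fold-change classes with vehicle and with vemurafenib, taken together, show a stronger drug effect on cell gain or lactate per cell; exact class pairs not stated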
Calls: active = enhances vemurafenib effect; inactive = no enhancement seen
In all, the deposit lists about 18,000 reagents; shown is a random part of them. Over the whole deposit, 790 (4.4%) got an active call. 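Calls rest on a combination of fold-change classes in drug and vehicle arms, not all shown here.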 Reagent sequences are not shown.

Gene,cell gain with vemurafenib,lactate per cell with vemurafenib,outcome
RIOX1 (GeneID 79697),0.46,0.31,inactive
DENND10P1 (GeneID 55855),0.65,0.6,inactive
FAM32A (GeneID 26017),0.47,1.29,inactive
SLN (GeneID 6588),1,0.76,inactive
IL18R1 (GeneID 8809),0.45,0.62,inactive
CD5L (GeneID 922),0.83,0.74,inactive
CEL (GeneID 1056),0.59,0.7,inactive
LARP4 (GeneID 113251),0.83,0.65,inactive
OXSR1 (GeneID 9943),1.05,1.25,inactive
TPD52L2 (GeneID 7165),1.23,0.75,inactive
PBRM1 (GeneID 55193),0.71,1.21,inactive
HSPB1 (GeneID 3315),0.71,0.66,inactive
PPP1R14B (GeneID 26472),0.9,0.64,inactive
AFMID (GeneID 125061),0.31,0.74,inactive
CC2D2B (GeneID 387707),0.82,0.86,inactive
TAS2R9 (GeneID 50835),0.05,1.84,inactive
CD1B (GeneID 910),0.56,1.33,inactive
DAB1 (GeneID 1600),1.25,0.44,inactive
UBE2R2 (GeneID 54926),0.85,1,inactive
NOMO2 (GeneID 283820),0.9,0.68,inactive
DSCR9 (GeneID 257203),1.36,0.68,inactive
TGM6 (GeneID 343641),0.89,0.14,active
SECISBP2 (GeneID 79048),0.66,0.68,inactive
HP (GeneID 3240),0.5,0.7,inactive
NXPH2 (GeneID 11249),0,3.73,inactive
TPRA1 (GeneID 131601),0.63,0.16,active
RAB4A (GeneID 5867),0.92,1.1,inactive
CARINH (GeneID 441108),0.26,4.76,inactive
PPFIBP2 (GeneID 8495),0.94,0.56,inactive
ZFYVE19 (GeneID 84936),0.5,0.77,inactive
TNFRSF11A (GeneID 8792),0.68,1.14,inactive
FRG2B (GeneID 441581),0.71,0.94,inactive
DNPH1 (GeneID 10591),0.4,1.01,inactive
PPM1F (GeneID 9647),0.76,0.4,inactive
ATG4D (GeneID 84971),0.3,1.3,inactive
CFAP45 (GeneID 25790),0.39,1.27,inactive
TAB3 (GeneID 257397),1.18,0.87,inactive
GBP5 (GeneID 115362),0.18,1.75,active
IL1RN (GeneID 3557),0.96,0.98,inactive
PLAGL2 (GeneID 5326),0.42,1.9,inactive
RBM11 (GeneID 54033),0.45,1.23,inactive
IL1R2 (GeneID 7850),0.53,1.61,inactive
DGKH (GeneID 160851),0.66,0.4,inactive
XAF1 (GeneID 54739),0.41,0.48,inactive
MYNN (GeneID 55892),0.45,0.87,inactive
NLRP11 (GeneID 204801),0.42,0.66,inactive
IFNA8 (GeneID 3445),0.46,0.8,inactive
ABCA6 (GeneID 23460),0.89,0.56,active
FRK (GeneID 2444),0.7,0.98,inactive
SPDL1 (GeneID 54908),0.22,0.86,inactive
ACTN2 (GeneID 88),0.56,0.77,inactive
TAF6L (GeneID 10629),0.4,2.2,inactive
C8orf33 (GeneID 65265),0.25,1.01,inactive
NR1H2 (GeneID 7376),0.34,1.83,inactive
JAK2 (GeneID 3717),0.73,1.13,inactive
NAIF1 (GeneID 203245),0.18,0.98,inactive
OR4K2 (GeneID 390431),0.14,1.48,inactive
